Library screening results

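Whole-cell assay for inhibitors of Mycobacterium tuberculosis growth, labelled Cornell in the record; the read-out is not stated. The concentration is filed as 10 mM, unlikely as a test dose, so the dose is not known. Higher means stronger inhibition (inferred from two other growth screens of the library). Of about 53,000 compounds tested this way, about 900 (1.7%) reached 50% or more in at least one test.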

Each number is a percent effect as filed.
The record does not define 0% and 100%; most values in the screen are far below 50% and negative numbers occur (in some assays of this library far below -100).
This is an unselected part of the compounds tested.

* CSCC(CCO)Nc1nc(C(F)F)nc2ccccc12 (stereo not shown) : 41.07%
* Cc1ccccc1-n1cc(-c2ccnc(N[C@H](CO)C(C)C)n2)cn1 : 5.429%
* COc1cc(NC(=O)N2CCCC2c2nncn2C)ccc1Br (stereo not shown) : 31.5%
* Fc1cccc(Cl)c1CNCCOc1ccccn1 : 41.65%
* [H][C@@]12C[C@H](c3nnc(C)o3)O[C@@]1([H])CCN(C(=O)Cc1ccc(F)cc1)C2 : -2.104%
* Cc1ccc(OCC2CCCN(C(=O)c3csc(CN(C)C)n3)C2)cc1 (stereo not shown) : -36.92%
* CC(C)(C)NC(=O)NC(=O)CNC(C)(C)c1ccc2c(c1)OCCO2 : 15.14%
* CNC(=O)CN1CCC(CN(C)CCSc2ccccc2)CC1 : 4.331%
* CNC(=O)NC(=O)CN1CCCN(CC(F)(F)F)CC1 : 21.17%
* CN(C)C(=O)c1cnn2c1OCCC2 : 35.81%
* CC(C)(C)CC(=O)NCC(=O)Nc1ccn(Cc2ccccc2)n1 : 2.732%
* Cc1cc(NC(=O)NCC(C)N2CCc3ccccc32)no1 (stereo not shown) : 26.44%
* Cc1cccc(Nc2cc(C3CCCN(CC(N)=O)C3)ccn2)n1.O=CO.O=CO (stereo not shown) : -26.2%
* CCOc1ccnc(N2CCCN(c3nc(CC)ns3)CC2)n1 : 7.233%
* CN(Cc1ccco1)C(=O)Nc1cccnc1N1CCCC1 : -28.41%
* Cc1ccccc1-c1cncc(C2CCN(Cc3ccccn3)CC2)n1 : 4.084%
* Cc1noc(C)c1C(C)NC(=O)N1CCC(NC(=O)c2ccsc2)CC1 (stereo not shown) : -3.44%
* O=C(O)C(F)(F)F.[H][C@@]12CN(Cc3ccccc3F)C[C@H](C(=O)N3CCCO3)[C@]1([H])CCO2 : -6.757%
* CN(CCc1ccccn1)C(=O)c1cn2c(n1)CNCC2 : 16.51%
* COc1cc(C2(C(=O)NC3CCC4(CC3)OCCO4)CC2)ccc1C : -62.88%
* COC1CCN(C(=O)CC2CCCC2)CC(=O)N(C)c2ccccc21 (stereo not shown) : 6.205%
* Cc1[nH]c2ccc(C#N)cc2c1CCNc1ncnc2c1CCNCC2 : 8.638%
* Cc1noc2ncnc(N(C)Cc3ccco3)c12 : 10.18%
* Cc1ccc(-n2c(COCC(=O)O)nc3c(C)cccc32)nc1 : -10.77%
* Cc1nc(N(C)CCN(C)C)c2cnn(C)c2n1 : -27.07%
* CCc1nccn1C1CCCN(C(=O)c2ccc(N(C)C)nn2)C1 (stereo not shown) : 26.8%
* CCc1nnc(SCc2cc(=O)n3c4c(sc3n2)CCCC4)[nH]1 : 40.4%
* COc1ccc2cc(CN(C)C(C)c3nc(C4CC4)no3)ccc2c1 (stereo not shown) : 34.41%
* COc1ccc(-c2cc(C3CCCCCN3S(=O)(=O)N(C)C)on2)cc1 (stereo not shown) : 15.93%
* Cc1cnn(CCC(=O)N2CCN(c3nc(C)cs3)CC2)c1 : -1.37%
* Cc1cnn(CC2CN(CCS(=O)(=O)c3ccccc3)CCO2)c1 (stereo not shown) : 5.968%
* NC(=O)CN1CCC(C(=O)NCc2nc(-c3ccc(F)cc3)cs2)CC1 : 6.926%
* CC(C)(NCC(=O)NC(=O)NC1CC1)c1ccc2c(c1)OCO2 : 21.16%
* CCCS(=O)(=O)N1CCc2onc(CNc3ncccn3)c2C1 : -27.81%
* Cc1ccc(Cl)cc1-n1nnnc1C1(N2CCCC2)CCCCC1 : -8.088%
* O=C(O)C(F)(F)F.O=C(O)C(F)(F)F.O=C(O)C(F)(F)F.[H][C@@]12CN(Cc3cccnc3OC)C[C@]1([H])OCCN2CCN(C)C : 12.57%
* CCOc1cc(F)ccc1NS(=O)(=O)c1cc(C)c(C(=O)O)s1 : 17.3%
* NC(=O)c1cnc(-c2ccccc2)nc1CCNC(=O)CN1CCCC1 : 5.456%
* [H][C@@]12CS(=O)(=O)C[C@]1([H])N(C(=O)Nc1ccccc1Cl)CCN2CC1CC1 : -6.777%
* CCCn1cc(-c2ccnc(NC3CCCc4ccccc43)n2)c(C)n1 (stereo not shown) : 106.6%
* CC(=O)c1cccc(NC(=O)C2CN(S(=O)(=O)C3CC3)C2)c1 : 7.508%
* COCCN1CCC2(CC1)CC(NC(=O)COC)c1ccccc1O2.O=C(O)C(F)(F)F (stereo not shown) : 11.68%
* CC1CCN(CCNC(=O)C2CCN(C(=O)NC(C)C)CC2)CC1 : 0.8265%
* CN(C)CC1(O)CCN(S(=O)(=O)c2ccc(F)cc2)C1 (stereo not shown) : -7.075%
* CN(C)c1ncc(NC(=O)N2CCC(CN3CCCC3)C2)cn1 (stereo not shown) : -23.44%
* COc1cccc(-c2n[nH]cc2C(=O)NC(C)c2nc(C(C)C)no2)c1 (stereo not shown) : 14.84%
* CC(Nc1ncnc2c1CCNC2)c1ccc(C(C)(C)C)cc1 (stereo not shown) : 24.62%
* Cc1cccc(CN2CCn3c(C(=O)N(C)C)cnc3C2)c1 : 9.959%
* Cn1nccc1C(=O)N1CCCN(CCCc2ccccc2)CC1 : -2.784%
* Cc1[nH]ccc1C(=O)N1CCC2(CC1)c1nc[nH]c1CCN2S(C)(=O)=O : 11.51%
* Cc1cc(CNC(=O)C2CCC(=O)N(Cc3ccccc3F)C2)on1 (stereo not shown) : 9.989%
* Cc1oncc1C(=O)N1CCC2(CC1)CN(S(C)(=O)=O)c1ccccc12 : 26.32%
* CCc1ncc2c(n1)CN(C(C(N)=O)c1ccccc1)CC2 (stereo not shown) : -65.02%
* O=C1NCC2=C1C(c1ccccc1)Nc1ccccc1N2 (stereo not shown) : -24.61%
* [H][C@@]12COC[C@H](c3nc(C)no3)[C@]1([H])CN(C(=O)Cc1cccc(F)c1)C2 : 5.181%
* COc1cccc(-c2nnn(C3CCN(CC(F)(F)F)C3=O)n2)c1 (stereo not shown) : 25.59%

Once more, the final 4:

CCc1ncc2c(n1)CN(C(C(N)=O)c1ccccc1)CC2 (stereo not shown) read -65.02%.
O=C1NCC2=C1C(c1ccccc1)Nc1ccccc1N2 (stereo not shown) read -24.61%.
[H][C@@]12COC[C@H](c3nc(C)no3)[C@]1([H])CN(C(=O)Cc1cccc(F)c1)C2 read 5.181%.
COc1cccc(-c2nnn(C3CCN(CC(F)(F)F)C3=O)n2)c1 (stereo not shown) read 25.59%.

Data taken from ChEMBL document CHEMBL3988442, “University of Dundee, Small-Polar-MMV Screening Library” (2021).